Experiment [1] concerns the target recombinant CD40 (ELISA antigen) (human) (UniProt P25942). Nature of the experiment: ELISA-type assay.
In experiment [2] the target is Purified CD40 (human) (UniProt P25942). Nature of the experiment: Western blot of purified CD40, antibody at 10 µg/ml.

Sequences of proteins named here, by UniProt entry; tags and fusion partners are left off. A change or cut given only in a name is not applied to a line headed by its entry.
UniProt P25942: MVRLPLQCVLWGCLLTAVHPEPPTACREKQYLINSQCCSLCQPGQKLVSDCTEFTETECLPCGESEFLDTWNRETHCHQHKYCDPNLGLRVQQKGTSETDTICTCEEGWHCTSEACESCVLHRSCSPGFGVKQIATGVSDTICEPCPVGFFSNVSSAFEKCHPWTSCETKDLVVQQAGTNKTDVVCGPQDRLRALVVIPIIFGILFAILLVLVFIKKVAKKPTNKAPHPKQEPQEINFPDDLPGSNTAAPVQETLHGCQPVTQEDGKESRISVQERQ

Results are given in words; binding and its absence hold for the method and conditions named. Some results given as binding are weak or reduced against the parent protein; the word gives no strength.

B1: monoclonal antibody CHIR-12.12 (antibody, human IgG1, kappa, V domains shown)
VH: QVQLVESGGGVVQPGRSLRLSCAASGFTFSSYGMHWVRQAPGKGLEWVAVISYEESNRYHADSVKGRFTISRDNSKITLYLQMNSLRTEDTAVYYCARDGGIAAPGPDYWGQGTLVTVSS
VL: DIVMTQSPLSLTVTPGEPASISCRSSQSLLYSNGYNYLDWYLQKPGQSPQVLISLGSNRASGVPDRFSGSGSGTDFTLKISRVEAEDVGVYYCMQARQTPFTFGPGTKVDIRR
notes: Fully human IgG1 kappa anti-human CD40 mAb; also called antibody of hybridoma 153.8E2.D10.D6.12.12
Regarding B1, the binding result in experiment [1] and in experiment [2] was “binds” in each case.

B2: monoclonal antibody CHIR-5.9 (antibody, human IgG1, kappa, V domains shown)
VH: EVQLVQSGAEVKKPGESLKISCKGSGYSFTSYWIGWVRQMPGKGLEWMGIIYPGDSDTRYSPSFQGQVTISADKSISTAYLQWSSLKASDTAMYYCARGTAAGRDYYYYYGMDVWGQGTTVTVSS
VL: AIVMTQPPLSSPVTLGQPASISCRSSQSLVHSDGNTYLNWLQQRPGQPPRLLIYKFFRRLSGVPDRFSGSGAGTDFTLKISRVEAEDVGVYYCMQVTQFPHTFGQGTRLEIKR
notes: Fully human IgG1 kappa anti-human CD40 mAb; also called mAb CHIR-5.9; antibody of hybridoma 131.2F8.5.9
Consider B2, for which the binding entry in experiment [1] and in experiment [2] was “binds” in each case.

(Values after patent US20070098718A1 (Novartis, published 2007).)
